# The other results are listed elsewhere or left out. Most values lie at the level of the controls, where differences are scatter.
# Amino acid sequences for entries named in this document (tags omitted). A change or cut given only in a name is not applied to a line headed by its entry.
# UniProt Q91YY5: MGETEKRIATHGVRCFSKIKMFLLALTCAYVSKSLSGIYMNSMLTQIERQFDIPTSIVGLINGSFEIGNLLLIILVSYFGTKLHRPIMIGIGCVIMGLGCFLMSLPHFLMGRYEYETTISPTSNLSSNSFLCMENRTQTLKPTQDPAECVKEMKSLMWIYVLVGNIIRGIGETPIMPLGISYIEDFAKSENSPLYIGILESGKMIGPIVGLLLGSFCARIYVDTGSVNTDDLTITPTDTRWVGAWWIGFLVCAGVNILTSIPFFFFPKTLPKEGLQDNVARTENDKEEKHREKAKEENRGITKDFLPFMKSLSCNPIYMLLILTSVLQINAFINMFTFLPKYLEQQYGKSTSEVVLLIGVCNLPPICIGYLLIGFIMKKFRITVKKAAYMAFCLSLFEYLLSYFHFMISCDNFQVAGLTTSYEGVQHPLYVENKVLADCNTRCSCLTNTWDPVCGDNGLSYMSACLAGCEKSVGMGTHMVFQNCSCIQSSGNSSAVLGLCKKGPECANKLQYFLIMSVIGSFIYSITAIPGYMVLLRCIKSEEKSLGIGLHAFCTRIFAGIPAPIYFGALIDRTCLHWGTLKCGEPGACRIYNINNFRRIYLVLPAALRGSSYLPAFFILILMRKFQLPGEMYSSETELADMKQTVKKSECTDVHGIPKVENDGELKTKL
# UniProt Q91VN4: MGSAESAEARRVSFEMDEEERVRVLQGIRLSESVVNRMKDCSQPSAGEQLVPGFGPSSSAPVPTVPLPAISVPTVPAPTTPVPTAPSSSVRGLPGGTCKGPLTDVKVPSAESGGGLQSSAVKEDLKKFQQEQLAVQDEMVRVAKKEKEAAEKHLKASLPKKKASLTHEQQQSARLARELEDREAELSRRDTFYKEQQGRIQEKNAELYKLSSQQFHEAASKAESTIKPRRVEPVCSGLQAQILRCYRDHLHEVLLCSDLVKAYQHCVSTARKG
# UniProt Q91YP0: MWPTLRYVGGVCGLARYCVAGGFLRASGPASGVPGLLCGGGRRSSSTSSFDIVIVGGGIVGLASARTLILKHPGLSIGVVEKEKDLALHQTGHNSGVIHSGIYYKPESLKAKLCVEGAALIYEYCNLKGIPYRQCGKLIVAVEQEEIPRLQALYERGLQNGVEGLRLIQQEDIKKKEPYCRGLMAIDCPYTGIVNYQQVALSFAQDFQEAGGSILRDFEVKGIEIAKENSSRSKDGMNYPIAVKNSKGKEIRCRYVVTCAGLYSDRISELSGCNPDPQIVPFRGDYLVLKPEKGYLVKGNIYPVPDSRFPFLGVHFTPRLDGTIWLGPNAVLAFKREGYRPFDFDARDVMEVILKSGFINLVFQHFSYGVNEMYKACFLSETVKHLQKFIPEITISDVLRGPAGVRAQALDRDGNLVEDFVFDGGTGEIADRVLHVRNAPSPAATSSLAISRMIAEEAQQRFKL
# UniProt Q91VN6: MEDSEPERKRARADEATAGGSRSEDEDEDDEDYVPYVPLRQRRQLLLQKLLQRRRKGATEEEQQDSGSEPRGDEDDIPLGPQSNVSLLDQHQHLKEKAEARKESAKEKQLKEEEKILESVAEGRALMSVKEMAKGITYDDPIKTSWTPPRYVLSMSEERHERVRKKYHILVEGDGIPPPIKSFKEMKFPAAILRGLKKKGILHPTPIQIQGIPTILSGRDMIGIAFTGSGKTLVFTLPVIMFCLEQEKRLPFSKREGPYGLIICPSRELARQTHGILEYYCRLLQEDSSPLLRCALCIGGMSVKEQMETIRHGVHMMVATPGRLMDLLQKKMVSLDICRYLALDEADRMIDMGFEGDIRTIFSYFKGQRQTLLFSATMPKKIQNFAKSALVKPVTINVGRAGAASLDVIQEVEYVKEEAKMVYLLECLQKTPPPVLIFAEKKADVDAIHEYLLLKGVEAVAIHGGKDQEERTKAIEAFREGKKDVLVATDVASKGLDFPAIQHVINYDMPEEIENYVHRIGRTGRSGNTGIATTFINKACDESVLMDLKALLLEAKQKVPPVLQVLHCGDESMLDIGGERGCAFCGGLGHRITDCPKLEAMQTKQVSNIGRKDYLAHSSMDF
# UniProt Q91VW9: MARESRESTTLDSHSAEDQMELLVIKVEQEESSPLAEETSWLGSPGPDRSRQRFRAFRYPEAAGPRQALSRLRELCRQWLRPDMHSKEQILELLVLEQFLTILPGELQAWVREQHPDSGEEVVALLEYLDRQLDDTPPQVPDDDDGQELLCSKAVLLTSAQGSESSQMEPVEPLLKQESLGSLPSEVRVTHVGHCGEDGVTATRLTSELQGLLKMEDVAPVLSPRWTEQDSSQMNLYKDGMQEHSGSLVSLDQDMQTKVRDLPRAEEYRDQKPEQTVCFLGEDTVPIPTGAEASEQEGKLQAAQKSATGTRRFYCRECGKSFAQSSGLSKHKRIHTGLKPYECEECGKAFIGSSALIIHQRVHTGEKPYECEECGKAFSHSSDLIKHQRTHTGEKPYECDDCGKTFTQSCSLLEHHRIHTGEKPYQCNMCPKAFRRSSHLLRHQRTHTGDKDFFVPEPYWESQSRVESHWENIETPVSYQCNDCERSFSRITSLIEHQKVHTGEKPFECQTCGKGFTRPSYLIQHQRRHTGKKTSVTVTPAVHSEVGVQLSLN
# UniProt Q91X43: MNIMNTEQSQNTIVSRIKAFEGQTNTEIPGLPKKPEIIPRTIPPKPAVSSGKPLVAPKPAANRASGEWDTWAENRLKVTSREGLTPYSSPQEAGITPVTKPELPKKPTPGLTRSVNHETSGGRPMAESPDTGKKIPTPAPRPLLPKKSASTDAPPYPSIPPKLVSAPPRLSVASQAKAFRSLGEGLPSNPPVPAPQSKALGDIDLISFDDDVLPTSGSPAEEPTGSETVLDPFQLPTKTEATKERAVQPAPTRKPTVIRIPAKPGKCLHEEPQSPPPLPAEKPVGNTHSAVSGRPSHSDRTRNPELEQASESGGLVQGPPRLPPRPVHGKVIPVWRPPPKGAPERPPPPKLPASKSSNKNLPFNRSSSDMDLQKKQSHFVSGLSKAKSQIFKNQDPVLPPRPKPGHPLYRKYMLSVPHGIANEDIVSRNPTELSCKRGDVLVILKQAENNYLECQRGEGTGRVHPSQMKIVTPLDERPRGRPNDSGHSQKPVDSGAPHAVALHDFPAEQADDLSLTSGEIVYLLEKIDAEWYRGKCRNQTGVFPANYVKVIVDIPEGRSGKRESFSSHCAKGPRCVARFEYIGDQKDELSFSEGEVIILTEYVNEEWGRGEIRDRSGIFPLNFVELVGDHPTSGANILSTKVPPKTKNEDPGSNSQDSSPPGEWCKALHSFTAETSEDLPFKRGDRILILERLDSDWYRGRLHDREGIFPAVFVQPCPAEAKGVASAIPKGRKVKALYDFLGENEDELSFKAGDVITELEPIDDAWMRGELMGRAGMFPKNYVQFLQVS
# UniProt Q91YE7, whole entry: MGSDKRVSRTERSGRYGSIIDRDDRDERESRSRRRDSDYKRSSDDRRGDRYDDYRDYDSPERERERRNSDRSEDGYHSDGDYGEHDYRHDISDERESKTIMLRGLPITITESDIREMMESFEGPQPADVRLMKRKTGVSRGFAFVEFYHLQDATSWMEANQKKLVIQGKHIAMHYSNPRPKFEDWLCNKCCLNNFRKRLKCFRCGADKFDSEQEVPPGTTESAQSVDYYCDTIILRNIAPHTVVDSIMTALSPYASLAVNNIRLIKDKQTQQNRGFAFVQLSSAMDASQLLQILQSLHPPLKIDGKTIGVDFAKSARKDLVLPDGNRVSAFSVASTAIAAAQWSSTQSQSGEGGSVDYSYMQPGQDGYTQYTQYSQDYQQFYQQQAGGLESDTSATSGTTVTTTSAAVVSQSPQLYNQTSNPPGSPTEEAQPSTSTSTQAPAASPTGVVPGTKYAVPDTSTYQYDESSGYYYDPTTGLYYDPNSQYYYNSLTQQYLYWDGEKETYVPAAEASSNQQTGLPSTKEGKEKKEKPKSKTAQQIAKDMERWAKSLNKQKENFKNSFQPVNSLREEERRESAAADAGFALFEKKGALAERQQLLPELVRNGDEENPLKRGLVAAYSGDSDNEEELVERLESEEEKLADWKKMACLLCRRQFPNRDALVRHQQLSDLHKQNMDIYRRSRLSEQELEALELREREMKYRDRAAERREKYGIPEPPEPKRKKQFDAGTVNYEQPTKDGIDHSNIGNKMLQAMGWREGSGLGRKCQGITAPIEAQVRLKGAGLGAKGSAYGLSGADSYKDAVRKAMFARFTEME
# UniProt Q91V64: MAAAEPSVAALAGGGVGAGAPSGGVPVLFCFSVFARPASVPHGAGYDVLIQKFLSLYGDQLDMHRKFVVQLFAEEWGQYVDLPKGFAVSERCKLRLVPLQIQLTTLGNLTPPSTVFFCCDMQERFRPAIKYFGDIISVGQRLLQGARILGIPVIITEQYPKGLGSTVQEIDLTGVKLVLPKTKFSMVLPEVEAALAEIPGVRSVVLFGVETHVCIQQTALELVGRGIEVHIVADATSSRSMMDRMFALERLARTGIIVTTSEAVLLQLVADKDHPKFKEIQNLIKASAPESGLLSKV
# UniProt Q91VT4: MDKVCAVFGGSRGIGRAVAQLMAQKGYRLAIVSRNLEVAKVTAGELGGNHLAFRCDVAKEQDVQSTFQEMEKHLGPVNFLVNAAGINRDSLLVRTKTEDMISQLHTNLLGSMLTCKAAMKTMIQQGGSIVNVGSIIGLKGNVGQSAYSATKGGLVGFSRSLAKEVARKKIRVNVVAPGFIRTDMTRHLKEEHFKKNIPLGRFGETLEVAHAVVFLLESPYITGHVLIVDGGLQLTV
# UniProt Q8VII8: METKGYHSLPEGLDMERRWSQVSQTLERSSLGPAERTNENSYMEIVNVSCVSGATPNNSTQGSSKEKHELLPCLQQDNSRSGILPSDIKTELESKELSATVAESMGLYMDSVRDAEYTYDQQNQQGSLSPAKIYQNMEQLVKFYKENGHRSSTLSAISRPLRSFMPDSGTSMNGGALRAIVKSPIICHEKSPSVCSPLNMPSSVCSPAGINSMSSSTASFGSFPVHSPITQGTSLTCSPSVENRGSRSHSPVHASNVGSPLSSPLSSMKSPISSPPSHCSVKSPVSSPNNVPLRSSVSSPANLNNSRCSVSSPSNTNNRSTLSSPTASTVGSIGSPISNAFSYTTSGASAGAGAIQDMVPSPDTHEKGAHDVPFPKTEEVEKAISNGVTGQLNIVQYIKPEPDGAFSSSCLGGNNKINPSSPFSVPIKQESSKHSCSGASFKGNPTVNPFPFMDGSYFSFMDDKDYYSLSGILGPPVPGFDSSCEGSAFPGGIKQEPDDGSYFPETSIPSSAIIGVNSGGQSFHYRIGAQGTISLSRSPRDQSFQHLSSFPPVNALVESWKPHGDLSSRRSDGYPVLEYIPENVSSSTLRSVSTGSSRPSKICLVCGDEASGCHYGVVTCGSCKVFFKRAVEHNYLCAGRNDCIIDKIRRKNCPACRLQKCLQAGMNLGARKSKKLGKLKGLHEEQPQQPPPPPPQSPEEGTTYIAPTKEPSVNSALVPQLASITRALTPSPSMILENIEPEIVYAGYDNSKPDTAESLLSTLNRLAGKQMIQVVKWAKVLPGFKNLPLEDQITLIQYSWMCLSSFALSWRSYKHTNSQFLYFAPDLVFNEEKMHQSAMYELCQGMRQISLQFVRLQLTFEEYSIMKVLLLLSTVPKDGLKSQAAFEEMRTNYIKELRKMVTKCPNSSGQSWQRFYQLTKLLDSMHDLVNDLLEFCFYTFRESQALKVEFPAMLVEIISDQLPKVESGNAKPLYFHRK
# UniProt Q91ZE5: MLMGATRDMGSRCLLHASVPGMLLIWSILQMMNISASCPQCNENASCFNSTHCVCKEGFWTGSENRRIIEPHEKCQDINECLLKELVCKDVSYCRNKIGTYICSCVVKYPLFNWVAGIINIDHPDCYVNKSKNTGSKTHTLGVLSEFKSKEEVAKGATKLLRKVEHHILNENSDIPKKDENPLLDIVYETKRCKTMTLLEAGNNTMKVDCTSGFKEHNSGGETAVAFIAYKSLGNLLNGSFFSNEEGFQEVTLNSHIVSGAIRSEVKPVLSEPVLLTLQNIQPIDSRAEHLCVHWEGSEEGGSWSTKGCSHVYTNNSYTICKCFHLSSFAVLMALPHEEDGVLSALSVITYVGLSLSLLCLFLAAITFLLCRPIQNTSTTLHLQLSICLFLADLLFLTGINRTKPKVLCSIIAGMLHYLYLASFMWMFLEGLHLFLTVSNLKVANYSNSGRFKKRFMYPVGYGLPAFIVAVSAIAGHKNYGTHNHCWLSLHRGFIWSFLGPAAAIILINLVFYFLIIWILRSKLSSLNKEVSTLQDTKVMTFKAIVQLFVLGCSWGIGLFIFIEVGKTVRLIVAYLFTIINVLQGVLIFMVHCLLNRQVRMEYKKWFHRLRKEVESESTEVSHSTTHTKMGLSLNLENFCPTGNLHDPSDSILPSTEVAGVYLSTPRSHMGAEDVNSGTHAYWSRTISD
# Compound: CN[C@@H]1C[C@H]2O[C@@](C)([C@@H]1OC)n1c3ccccc3c3c4c(c5c6ccccc6n2c5c31)C(=O)NC4 [staurosporine]
# Test: log2 fold change of tryptic peptide abundance, ligand vs vehicle (limited proteolysis) (log2 ratio); higher = more trypsin-susceptible (destabilized)
# Settings: ligand concentration: 20 uM; sample: mouse liver crude lysate; replicate design: treated separately
row,Target,log2 fold change
1,"UniProt Q91YY5 (peptide sequence: VENDGELK, peptide start residue: 660)",-0.274
2,"UniProt Q91VN4 (peptide sequence: ASLTHEQQQSAR, peptide start residue: 163)",-0.139
3,"UniProt Q91YP0 (peptide sequence: GNIYPVPDSR, peptide start residue: 299)",0.231
4,"UniProt Q91VN6 (peptide sequence: CALCIGGMSVK, peptide start residue: 294)",0.551
5,"UniProt Q91VW9 (peptide sequence: TFTQSCSLLEHHR, peptide start residue: 405)",-0.26
6,"UniProt Q91X43 (peptide sequence: VIPVWRPPPK, peptide start residue: 331)",0.767
7,"UniProt Q91YE7 (peptide sequence: NGDEENPLKR, peptide start residue: 605)",-0.415
8,"UniProt Q91V64 (peptide sequence: FKEIQNLIK, peptide start residue: 277)",0.125
9,"UniProt Q91VT4 (peptide sequence: VNVVAPGFIRTDMTR, peptide start residue: 172)",0.455
10,"UniProt Q8VII8 (peptide sequence: SGILPSDIK, peptide start residue: 81)",-0.0936
11,"UniProt Q91ZE5 (peptide sequence: EVESESTEVSHSTTHTK, peptide start residue: 613)",-0.257
